Results: PubChem BioAssay AID1259354 (Paczesny and Yang Labs, IUPUI and University of Michigan, 2018)
About 1,800 (2.3%) of roughly 78,000 compounds were called active. Inconclusive results, whose numbers are uncertain, are shown with a selection of clear calls. No stated cut-off is given here; in the data, active means inhibition above about 30%; inconclusive means mostly about 10% to 28%; inactive means weaker than that.

Sequences of proteins named here, by UniProt entry; tags and fusion partners are left off. A change or cut given only in a name is not applied to a line headed by its entry.
UniProt Q01638: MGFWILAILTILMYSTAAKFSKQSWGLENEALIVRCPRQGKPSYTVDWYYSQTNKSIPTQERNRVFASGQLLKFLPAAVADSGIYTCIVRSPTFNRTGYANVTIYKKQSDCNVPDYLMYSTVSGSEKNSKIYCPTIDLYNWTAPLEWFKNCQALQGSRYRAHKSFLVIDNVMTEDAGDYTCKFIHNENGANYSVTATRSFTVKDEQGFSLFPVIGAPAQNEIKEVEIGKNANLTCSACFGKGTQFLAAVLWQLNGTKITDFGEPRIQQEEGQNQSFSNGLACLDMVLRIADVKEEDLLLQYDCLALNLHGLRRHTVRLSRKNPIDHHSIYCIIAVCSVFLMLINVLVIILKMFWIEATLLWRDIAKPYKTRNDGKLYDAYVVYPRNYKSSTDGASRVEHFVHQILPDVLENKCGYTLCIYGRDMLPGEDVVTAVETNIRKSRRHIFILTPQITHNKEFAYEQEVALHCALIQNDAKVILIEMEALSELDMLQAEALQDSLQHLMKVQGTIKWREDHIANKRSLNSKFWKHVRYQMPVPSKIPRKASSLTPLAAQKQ

Target: Interleukin-1 receptor-like 1 (Homo sapiens) (UniProt Q01638)
Assay: blocks human ST2 binding to IL-33, primary screen, biochemical, AlphaLISA (AID 1259354)
Settings: AlphaLISA ST2-Fc/biotin-IL-33 interaction, 1 h; at 17 µM, active compounds read high

Structure (SMILES)	inhibition
O=C(CSc1oc(-c2ccccc2)nc1S(=O)(=O)c1ccccc1)Nc1ccc(F)cc1	inconclusive: 10%
CC1=C(C(=O)Nc2ccccn2)C(c2cccc(Cl)c2)C2=C(CC(C)(C)CC2=O)N1 (stereo not drawn)	inactive
COc1ccc(CNC(=O)c2ccc(C)cc2)cc1	inconclusive: 20%
O=C(CCc1n[nH]c2c1CCCC2)N1CCCC(c2ccn[nH]2)C1 (stereo not drawn)	inconclusive: 16%
CC(C)=C(NC(=O)c1ccccc1)C(=O)NCc1ccccc1Cl	inconclusive: 11%
O=[N+]([O-])c1ccc(N2CCCC2)c(Cl)c1	inconclusive: 12%
O=C(c1cc(C2CC2)[nH]n1)N1CCCN(C(=O)C2CCC2)CC1	inconclusive: 11%
CC(O)C(O)(C(=O)OCc1cc(O)ccc1NC(=O)CCC(N)C(=O)O)C(C)O (stereo not drawn)	inconclusive: 24%
CCN(CC)C(=O)[C@@H]1C[C@@H](N)CN1S(=O)(=O)N1CCOCC1	inconclusive: 19%
N#CC1=C(N)Oc2n[nH]c(-c3ccccc3)c2C1C1CC=CCC1 (stereo not drawn)	inactive
CCC(CC)C(=O)Nc1cc(C)ccc1OCc1cc(=O)n2oc(C)cc2n1	inactive
CC(=O)C1=NN(c2ccccc2)C2C(=O)N(c3ccccc3Cl)C(=O)C12 (stereo not drawn)	inactive
c1ccc(CCc2n[nH]c(COc3ccc4c(c3)OCO4)n2)cc1	inconclusive: 17%
CC(=O)c1cccc(C(=O)N2C[C@H](N(C)C)C[C@H]2CO)c1	inactive
Cc1ccccc1-n1ncc(C(C)NC(=O)Cc2c(C)[nH]c3c(F)cccc23)c1C (stereo not drawn)	inconclusive: 16%
Cc1ccccc1OCCCN1CCOCC1	inactive
CC(C)Oc1ccccc1-c1nc(C(N)=O)c2c(n1)n(-c1ccc(F)cc1)c(=O)n2C	inactive
O=C(NC1CCCCC1)N1C[C@@H]2C[C@H](C1)c1ccc(NS(=O)(=O)c3ccccc3)c(=O)n1C2	inconclusive: 14%
CCC1(c2ccc3cc(OC)ccc3c2)SC(NC(C)=O)=NN1C(C)=O (stereo not drawn)	inactive
COCCC(=O)N[C@H]1CC[C@]2(C)CCC([C@H](C)C(=O)N(C)Cc3ccccc3)[C@H](O)[C@H]2[C@@H]1C (stereo partly drawn)	inconclusive: 11%

Structure (SMILES)	inhibition
CC(C)c1cc(C2CCN(C(=O)c3n[nH]c(=O)c4ccccc34)CC2)[nH]n1	inconclusive: 13%
CCC(C)NC(=O)CN1C(=O)/C(=C\c2ccc(C(F)(F)F)cc2)Sc2ccccc21 (stereo not drawn)	inactive
COC(=O)[C@@H]1C[C@@H](NC(=O)c2cn3c4c(cccc4c2=O)CC3)CN1C	inconclusive: 12%
O=C1C2=C(C(c3ccccc3)=NCCN2)C(c2ccccc2)N1c1ccccc1 (stereo not drawn)	inconclusive: 11%
Cc1cc(NC(=O)Cn2cnc3c(oc4ccccc43)c2=O)no1	inconclusive: 23%
CSc1ccc(-c2nc(CSCC(=O)NCc3ccc(C)cc3)c(C)o2)cc1	inactive
COc1cc([N+](=O)[O-])cc(CN2CCOCC2)c1O	inactive
O=C(CCC1N=C2c3ccccc3N=C(SCc3ccccc3F)N2C1=O)NCc1ccco1 (stereo not drawn)	inconclusive: 16%
COc1cccc(NC(=O)N2CC[C@H](c3nnc(-c4ccc(N(C)C)cc4)o3)C2)c1	inactive
O=C(Nc1ccc2nn(-c3ccc(Cl)cc3)nc2c1)c1cccs1	inconclusive: 23%
CC1=C(C(=O)OC(C)C)C(c2ccc(F)cc2)C(C#N)=C(N)O1 (stereo not drawn)	inactive
CC(C)(C)C1CCc2c(sc3c2C(=O)NC(c2ccccc2F)N3)C1 (stereo not drawn)	inactive
CC1(C)Cc2ccccc2-c2nc(NCCO)n(Cc3ccccc3)c(=O)c21	inconclusive: 14%
COc1ccccc1N=Cc1c(C)[nH]n(-c2ccccc2)c1=O	inconclusive: 20%
O=C(Cc1c(C(=O)O)[nH]c2ccc(Cl)cc12)NCC1(c2ccccc2)CCCC1	inactive
O=C(C[C@@H]1CCNC[C@@H]1Cc1cc(CN2CCCCC2)on1)N1CCN(c2ccccn2)CC1	inconclusive: 21%
CCC(Oc1ccccc1)C(=O)Nc1cc(Cl)ccc1OCc1cc(=O)n2oc(C)cc2n1 (stereo not drawn)	inconclusive: 28%
O=S(=O)(NCc1ccccc1)NCC(c1ccc(F)cc1)N1CCCC1 (stereo not drawn)	inconclusive: 14%
O=C(Nc1cccc(N2CCC(N3CCC4(C=Cc5ccccc54)CC3)CC2)c1)c1ccncc1	inactive
COc1ccc(CCNc2oc(COc3ccccc3C)nc2C#N)cc1OC	active: 38%

Structure (SMILES)	inhibition
COc1cc(/C=C/C(=O)O[C@@H]2C[C@@](O)(C(=O)O)C[C@@H](O)[C@@H]2O)ccc1O	inconclusive: 10%
Cc1ccccc1S(=O)(=O)Cc1ccc(C(=O)NCc2ccc3c(c2)OCO3)o1	inactive
CCOC(=O)C(Cc1c[nH]c2ccccc12)NC(=O)COc1ccccc1 (stereo not drawn)	inactive
CCc1nnc(CN2CCc3onc(-c4cccc5ccccc45)c3C2)o1	inconclusive: 16%
CN(C)CC[C@@H](c1ccc(Cl)cc1)c1ccccn1	inconclusive: 15%
CCOc1ccc(-c2cnc(-c3cccc(OCC(N)=O)c3)[nH]2)cc1	inconclusive: 11%
O=C(c1ccco1)N1CCCN(Cc2nc(-c3cccs3)no2)CC1	inactive
O=C(Nc1cccc(F)c1)N1Cc2[nH]cnc2C[C@H]1c1nc(-c2ccccc2)no1	inconclusive: 12%
CC(C)(C)c1ccc(-n2ncc3c2CCCC3NC(=O)CCN2CCCCO2)cc1 (stereo not drawn)	inconclusive: 15%
O=C(CSc1ncnc2nc[nH]c12)c1cccc([N+](=O)[O-])c1	inactive
N#Cc1c(N=CN2CCCCC2)sc2c1CCCCC2	active: 35%
Cc1ncc(C[n+]2cccc3ccccc32)c(N)n1	inactive
CCCCCNC(=O)C1CCC(Cn2c(=O)c3sccc3n(CC(=O)NC(C)C)c2=O)CC1 (stereo not drawn)	inactive
NCc1cn(C2CCN(Cc3ccc(-c4ccccc4Cl)o3)CC2)nn1	inconclusive: 16%
COc1ccc(N2C(=O)C3CCCN3C2c2ccc(Br)cc2)cc1Cl (stereo not drawn)	inactive
Cc1nnc(SCC(=O)NCCCc2nc3ccc(Cl)cc3[nH]2)s1	inconclusive: 29%
CCc1ccc(-c2nccn2CC(C)Oc2cccnc2)nc1 (stereo not drawn)	inconclusive: 19%
O=c1c2ccccc2ncn1CCc1n[nH]c(CCc2ccccc2)n1	inconclusive: 23%

Quoted at random: 2 compounds from above.
Structure (SMILES)	inhibition
CC(C)(C)c1ccc(-n2ncc3c2CCCC3NC(=O)CCN2CCCCO2)cc1 (stereo not drawn)	inconclusive: 15%
CCC1(c2ccc3cc(OC)ccc3c2)SC(NC(C)=O)=NN1C(C)=O (stereo not drawn)	inactive
